Our source for the binding stoichiometry values is PMC6854577, “Quantitation of Thyroid Hormone Binding to Anti-Thyroxine Antibody Fab Fragment by Native Mass Spectrometry” (ACS Omega, 2019).

This data set concerns anti-T4 antibody Fab fragment. Briefly: Native MS initial ligand screening (approximate affinities, stoichiometry). The format is binding, mouse. The conditions noted are these: 0.1 μM Fab, four to six ligand concentrations. As to the method:
All mass spectrometric experiments were performed by using a 12-T Bruker solariX XR Fourier transform ion cyclotron resonance (FT-ICR) instrument (Bruker Daltonics, Bremen, Germany) equipped with an electrospray ionization (ESI) source (Apollo-II). Mass spectra were obtained in a positive ion mode, and the samples were directly infused to the ion source at a flow rate of 2 μL min^–1. Dry nitrogen was used as nebulizing (4.0 L min^–1) and drying (80 °C, 1.0 bar) gas. The ions were accumulated in the hexapole ion trap for 3.5 s and then transferred to the dynamically harmonized ICR cell (Paracell) for trapping, excitation, and detection. The time of flight was set to 3.5 ms. All other instrumental parameters were carefully adjusted to preserve noncovalent interactions in the gas phase. […] The mass spectra were externally calibrated by the ESI Tuning mix (part no. G2431A; Agilent Technologies, Santa Clara, CA). The mass spectra were acquired from m/z 1500 to 5000. The data acquisition was attained by ftmsControl 2.1 software and further processed and analyzed by DataAnalysis 4.2 SR1 software. All native MS experiments were performed in 20 mM aqueous ammonium acetate (pH 6.9) solution.
First, the approximate binding affinities of thyroid hormones and tetrahalogen bisphenols to anti-T4 Fab were determined via initial screening experiments (Figures S1–S7).

SMILES strings stand for the structures.

Take `CC(C)(c1cc(I)c(O)c(I)c1)c1cc(I)c(O)c(I)c1` [TIB, tetraiodobisphenol-A]: the binding stoichiometry result was “only 1:1 binding”.

As for `CC(C)(c1cc(Br)c(O)c(Br)c1)c1cc(Br)c(O)c(Br)c1` [TBB, tetrabromobisphenol-A], the binding stoichiometry entry is recorded as “only 1:1 binding”.

With `N[C@@H](Cc1ccc(Oc2ccc(O)cc2)cc1)C(=O)O` [T0, L-thyronine], the binding stoichiometry result is reported as “binding of the second ligand at the highest ligand concentrations was observed”.

On to `N[C@@H](Cc1ccc(Oc2ccc(O)c(I)c2)c(I)c1)C(=O)O` [T2, 3,3′-diiodo-L-thyronine], for which the binding stoichiometry result is recorded as “only 1:1 binding”.

Take `CC(C)(c1cc(Cl)c(O)c(Cl)c1)c1cc(Cl)c(O)c(Cl)c1` [TCB, tetrachlorobisphenol-A]: the binding stoichiometry entry is recorded as “binding of the second ligand at the highest ligand concentrations was observed”.

Consider `N[C@@H](Cc1cc(I)c(Oc2ccc(O)c(I)c2)c(I)c1)C(=O)O` [T3, 3,3′,5-triiodo-L-thyronine], for which the binding stoichiometry result is listed as “only 1:1 binding”.

On to `N[C@@H](Cc1cc(I)c(Oc2cc(I)c(O)c(I)c2)c(I)c1)C(=O)O` [T4, L-thyroxine], for which the binding stoichiometry entry is “only 1:1 binding”.
